Patent publication US7691866B2, “2,6-disubstituted quinazolines, quinoxalines, quinolines and isoquinolines and methods of their use as inhibitors of Raf kinase” (Novartis Vaccines and Diagnostics, Inc., priority 2003, dated 2010)
Some entries share one result that the patent states for a list of compounds.

target: Raf kinase; assay: Raf/Mek Filtration Assay or Biotinylated Raf Screen (procedures of Examples 94 or 95); type: biochemical, human; details: using the procedures of Examples 94 or 95; assay and Raf isoform not specified per compound; read-out: raf kinase inhibitory activity at an IC50

Row | SMILES | IC50 [µM]
1 | CCc1ccccc1Nc1ncc2cc(Oc3ccnc(C(=O)NC)c3)ccc2n1 [Example 41, 4-({2-[(2-ethylphenyl)amino]-quinazolin-6-yl}oxy)-N-methyl-pyridine-2-carboxamide] | < 5
2 | CNC(=O)c1cc(Oc2ccc3nc(Nc4cccc(F)c4C)ncc3c2)ccn1 [Example 42, 4-({2-[(3-fluoro-2-methylphenyl)amino]quinazolin-6-yl}oxy)-N-methylpyridine-2-carboxamide] | < 5
3 | CNC(=O)c1cc(Oc2ccc3nc(Nc4ccccc4Oc4ccccc4)ncc3c2)ccn1 [Example 43, N-methyl-4-[(2-{[2-(phenyloxy)-phenyl]amino}quinazolin-6-yl)oxy]pyridine-2-carboxamide] | < 5
4 | CNC(=O)c1cc(Oc2ccc3nc(Nc4ccc5ccccc5n4)ncc3c2)ccn1 [Example 44, N-methyl-4-{[2-(quinolin-2-ylamino)quinazolin-6-yl]oxy}-pyridine-2-carboxamide] | < 5
5 | CNC(=O)c1cc(Oc2ccc3nc(Nc4cc(C)ccc4C)ncc3c2)ccn1 [Example 45, 4-({2-[(2,5-dimethylphenyl)-amino]quinazolin-6-yl}oxy)-N-methylpyridine-2-carboxamide] | < 5
6 | CNC(=O)c1cc(Oc2ccc3nc(Nc4cc(C)ccc4OC)ncc3c2)ccn1 [Example 46, N-methyl-4-[(2-{[5-methyl-2-(methyloxy)phenyl]amino}-quinazolin-6-yl)oxy]pyridine-2-carboxamide] | < 5
7 | CNC(=O)c1cc(Oc2ccc3nc(Nc4ccccn4)ncc3c2)ccn1 [Example 47, N-methyl-4-{[2-(pyridin-2-ylamino)quinazolin-6-yl]oxy}-pyridine-2-carboxamide] | < 5
8 | CNC(=O)c1cc(Oc2ccc3nc(Nc4ccccc4N4CCOCC4)ncc3c2)ccn1 [Example 48, N-methyl-4-({2-[(2-morpholin-4-ylphenyl)amino]quinazolin-6-yl}oxy)pyridine-2-carboxamide] | < 5
9 | CNC(=O)c1cc(Oc2ccc3nc(Nc4cc(C(F)(F)F)ccc4OC)ncc3c2)ccn1 [Example 49, N-methyl-4-[(2-{[2-(methyloxy)-5-(trifluoromethyl)phenyl]amino}quinazolin-6-yl)oxy]pyridine-2-carboxamide] | < 5
10 | CNC(=O)c1cc(Oc2ccc3nc(Nc4cccc(F)c4)ncc3c2)ccn1 [Example 50, 4-({2-[(3-fluorophenyl)amino]-quinazolin-6-yl}oxy)-N-methyl-pyridine-2-carboxamide] | < 5
11 | CNC(=O)c1cc(Oc2ccc3nc(Nc4cccc(Cl)c4)ncc3c2)ccn1 [Example 51, 4-({2-[(3-chlorophenyl)amino]-quinazolin-6-yl}oxy)-N-methyl-pyridine-2-carboxamide] | < 5
12 | CNC(=O)c1cc(Oc2ccc3nc(Nc4cccc(Br)c4)ncc3c2)ccn1 [Example 52, 4-({2-[(3-bromophenyl)amino]-quinazolin-6-yl}oxy)-N-methyl-pyridine-2-carboxamide] | < 5
13 | CNC(=O)c1cc(Oc2ccc3nc(Nc4ccc5c(c4)OCCO5)ncc3c2)ccn1 [Example 53, 4-{[2-(2,3-dihydro-1,4-benzo-dioxin-6-ylamino)quinazolin-6-yl]oxy}-N-methylpyridine-2-carboxamide] | < 5
14 | CNC(=O)c1cc(Oc2ccc3nc(Nc4cc(C(F)(F)F)cc(C(F)(F)F)c4)ncc3c2)ccn1 [Example 54, 4-[(2-{[3,5-bis(trifluoromethyl)-phenyl]amino}quinazolin-6-yl)-oxy]-N-methylpyridine-2-carbox-amide] | < 5
15 | CNC(=O)c1cc(Oc2ccc3nc(Nc4ccc(OC)c(Cl)c4)ncc3c2)ccn1 [Example 55, 4-[(2-{[3-chloro-4-(methyloxy)-phenyl]amino}quinazolin-6-yl)-oxy]-N-methylpyridine-2-carboxamide] | < 5
16 | CNC(=O)c1cc(Oc2ccc3nc(Nc4cccc(SC)c4)ncc3c2)ccn1 [Example 56, N-methyl-4-[(2-{[3-(methylthio)-phenyl]amino}quinazolin-6-yl)-oxy]pyridine-2-carboxamide] | < 5
17 | CNC(=O)c1cc(Oc2ccc3nc(Nc4cccnc4)ncc3c2)ccn1 [Example 57, N-methyl-4-{[2-(pyridin-3-yl-amino)quinazolin-6-yl]oxy}-pyridine-2-carboxamide] | < 5
18 | CNC(=O)c1cc(Oc2ccc3nc(Nc4cccc(OCc5ccccc5)c4)ncc3c2)ccn1 [Example 58] | < 5
19 | CNC(=O)c1cc(Oc2ccc3nc(Nc4cccc(-c5ccccc5)c4)ncc3c2)ccn1 [Example 59, 4-{[2-(1,1′-biphenyl-3-ylamino)-quinazolin-6-yl]oxy}-N-methyl-pyridine-2-carboxamide] | < 5
20 | CNC(=O)c1cc(Oc2ccc3nc(Nc4cccc(OC(F)(F)F)c4)ncc3c2)ccn1 [Example 60, N-methyl-4-{[2-({3-[(trifluoro-methyl)oxy]phenyl}amino)-quinazolin-6-yl]oxy}pyridine-2-carboxamide] | < 5
21 | C#Cc1cccc(Nc2ncc3cc(Oc4ccnc(C(=O)NC)c4)ccc3n2)c1 [Example 61, 4-({2-[(3-ethynylphenyl)amino]-quinazolin-6-yl}oxy)-N-methyl-pyridine-2-carboxamide] | < 5
22 | CNC(=O)c1cc(Oc2ccc3nc(Nc4ccc(F)c(F)c4)ncc3c2)ccn1 [Example 62, 4-({2-[(3,4-difluorophenyl)amino]-quinazolin-6-yl}oxy)-N-methyl-pyridine-2-carboxamide] | < 5
23 | CNC(=O)c1cc(Oc2ccc3nc(Nc4ccc(C)c(C)c4)ncc3c2)ccn1 [Example 63, 4-({2-[(3,4-dimethylphenyl)-amino]quinazolin-6-yl}oxy)-N-methylpyridine-2-carboxamide] | < 5
24 | CNC(=O)c1cc(Oc2ccc3nc(Nc4ccc(N5CCCCC5)cc4)ncc3c2)ccn1 [Example 64, N-methyl-4-({2-[(4-piperidin-1-ylphenyl)amino]quinazolin-6-yl}-oxy)pyridine-2-carboxamide] | < 5
25 | CNC(=O)c1cc(Oc2ccc3nc(Nc4ccc(OC)cc4)ncc3c2)ccn1 [Example 65, N-methyl-4-[(2-{[4-(methyloxy)-phenyl]amino}quinazolin-6-yl)-oxy]pyridine-2-carboxamide] | < 5
26 | CCc1ccc(Nc2ncc3cc(Oc4ccnc(C(=O)NC)c4)ccc3n2)cc1 [Example 66, 4-({2-[(4-ethylphenyl)amino]-quinazolin-6-yl}oxy)-N-methyl-pyridine-2-carboxamide] | < 5
27 | CCCCOc1ccc(Nc2ncc3cc(Oc4ccnc(C(=O)NC)c4)ccc3n2)cc1 [Example 67, 4-[(2-{[4-(butyloxy)phenyl]-amino}quinazolin-6-yl)oxy]-N-methylpyridine-2-carboxamide] | < 5
28 | CNC(=O)c1cc(Oc2ccc3nc(Nc4ccc(C(C)C)cc4)ncc3c2)ccn1 [Example 68, N-methyl-4-[(2-{[4-(1-methyl-ethyl)phenyl]amino}quinazolin-6-yl)oxy]pyridine-2-carboxamide] | < 5
29 | CNC(=O)c1cc(Oc2ccc3nc(Nc4cc(Cl)ccc4OC)ncc3c2)ccn1 [Example 69, 4-[(2-{[5-chloro-2-(methyloxy)-phenyl]amino}quinazolin-6-yl)-oxy]-N-methylpyridine-2-carboxamide] | < 5
